Source: patent US20120082679A1 (Merck Sharp & Dohme, published 2012)
Where a chain is given by its changes, count along the chain named. These are yes or no findings as the source states them, for the method shown. Some binding calls cover weakened binding; strength is not graded here.

Protein sequences, listed by entry. Tags and fused reporters are not part of them. Residues count along the entry.
UniProt Q8NBP7, residues 31-692: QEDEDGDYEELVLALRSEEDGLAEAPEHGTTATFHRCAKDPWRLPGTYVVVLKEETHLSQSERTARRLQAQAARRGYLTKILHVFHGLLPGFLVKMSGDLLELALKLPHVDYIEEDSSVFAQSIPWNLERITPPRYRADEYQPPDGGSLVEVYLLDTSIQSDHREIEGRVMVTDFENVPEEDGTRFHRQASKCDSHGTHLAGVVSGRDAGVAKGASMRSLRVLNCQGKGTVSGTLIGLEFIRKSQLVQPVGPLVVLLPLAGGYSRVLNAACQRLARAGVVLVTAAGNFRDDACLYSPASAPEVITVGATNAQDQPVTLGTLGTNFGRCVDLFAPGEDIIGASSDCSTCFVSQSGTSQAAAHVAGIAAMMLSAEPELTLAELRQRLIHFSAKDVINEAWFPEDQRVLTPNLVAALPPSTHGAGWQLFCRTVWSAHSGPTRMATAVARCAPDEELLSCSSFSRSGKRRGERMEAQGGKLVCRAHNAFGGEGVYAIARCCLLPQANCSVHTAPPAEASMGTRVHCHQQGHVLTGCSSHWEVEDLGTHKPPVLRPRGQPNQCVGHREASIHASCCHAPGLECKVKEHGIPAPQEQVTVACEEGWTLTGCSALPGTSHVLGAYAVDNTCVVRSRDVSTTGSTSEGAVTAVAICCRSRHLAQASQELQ

B1: 1CX1G08 (Fab, V domains shown)
VH: QVQLVESGGGLVQPGGSLRLSCAASGFTFSDYWVSWVRQAPGKGLEWVSFISYDGSSTYYADSVKGRFTISRDNSKNTLYLQMNSLRAEDTAVYYCARTYFEGVDVWGQGTLVTVSS
VL: DIELTQPPSVSVAPGQTARISCSGDNIGTYYVHWYQQKPGQAPVLVIYDDSNRPSGIPERFSGSNSGNTATLTISGTQAEDEADYYCGTWDNTSFNLVFGGGTKLTVLG
notes: also called 1CX1G08 Fab
B2: 3CX2A06 (Fab, V domains shown)
VH: QVQLVQSGAEVKKPGESLKISCKGSGYSFSNFWIAWVRQMPGKGLEWMGIIDPSDSWTRYSPSFQGQVTISADKSISTAYLQWSSLKASDTAMYYCARGDGQDFDNWGQGTLVTVSS
VL: DIQMTQSPSSLSASVGDRVTITCRASQNINSYLNWYQQKPGKAPKLLIYAASSLQSGVPSRFSGSGSGTDFTLTISSLQPEDFAVYYCLQNYDLPNTFGQGTKVEIKR
notes: No SPR values are printed for this Fab; also called 3CX2A06 Fab
B3: 3CX3D02 (Fab, V domains shown)
VH: QVQLVQSGAEVKKPGESLKISCKGSGYSFTNSWIGWVRQMPGKGLEWMGIIYPSDSYTIYSPSFQGQVTISADKSISTAYLQWSSLKASDTAMYYCARGGGYYYALMDVWAQGTLVTVSS
VL: B2 VL with N28T, N30S, S31T, Y32W, V85T, N91D, Y92S, D93S, N96L
notes: also called 3CX3D02 Fab
B4: 3CX4B08 (Fab, V domains shown)
VH: QVQLVESGGGLVQPGGSLRLSCAASGFTFSNYTMNWVRQAPGKGLEWVSFISSSSSETYYADSVKGRFTISRDNSKNTLYLQMNSLRAEDTAVYYCARGYGDMVDLWGQGTLVTVSS
VL: DIELTQPPSVSVAPGQTARISCSGDSIPTYYVAWYQQKPGQAPVLVIYSDTDRPSGIPERFSGSNSGNTATLTISGTQAEDEADYYCQSFDNHGYHVFGGGTKLTVLG
notes: also called 3CX4B08 Fab
B5: 3BX5C01 (Fab, V domains shown)
VH: QVQLVQSGAEVKKPGESLKISCKGSGYSFTSYGISWVRQMPGKGLEWMGMIDPSDSFTTYSPSFQGQVTISADKSISTAYLQWSSLKASDTAMYYCARGYYFTYALQPMDHWGQGTLVTVSS
VL: DIELTQPPSVSVAPGQTARISCSGDNLRDYIVHWYQQKPGQAPVLVIYDDSNRPSGIPERFSGSNSGNTATLTISGTQAEDEADYYCGFDNGGDIDVFGGGTKLTVLG
notes: also called 3BX5C01 Fab

Each binder was assayed against recombinant human PCSK9, V5-, His-tagged (human, UniProt Q8NBP7 31-692, limits assumed) (assay: ELISA on immobilized V5-, His-tagged PCSK9).

binding, binds:
B1
B2
B3
B4
B5
